PubChem BioAssay AID1259306 | Sanger Institute | 2017
Shown is one part, drawn at random, of 794 reagents. 11 of all reagents (1.4%) were called active. 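Calls reflect knock-down alone; synergy scores play no part, so knock-downs synergising with a drug can be called no change.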 Not all columns of the deposit are shown. The record does not give: the amount of reagent, the time to read-out.

Purpose: 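Kinases needed for viability and knock-downs that synergise with BYL719, cetuximab or trametinib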 (primary screen)
Cell system: human SNU-C5 colorectal cancer cells
Reagents: siRNA pool against human genes
Treatment: DMSO vehicle alone, or one anchor drug: BYL719 at 1 µM, cetuximab at 5 µg/ml or trametinib at 10 nM, given 24 h into the assay
Measured: 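Viability versus non-targeting pool averaged across replicates, given as fraction and robust z-score, and synergy scores for BYL719, cetuximab or trametinib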
Direction: robust z-score, knock-down alone: higher = more viable cells
Call rule: 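Called essential when the robust z-score for knock-down alone is below -3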
Calls: active = essential (knock-down alone); inactive = no change alone

Depletion of TRPM7 resulted in: robust z-score, knock-down alone -1.59; inactive. TESK2 (testis associated actin remodelling kinase 2) gave robust z-score, knock-down alone 0.868; inactive. After knock-down of PGK1 (phosphoglycerate kinase 1), the screen gave robust z-score, knock-down alone -0.292; inactive. With knock-down of MYH10 (myosin heavy chain 10), the screen gave robust z-score, knock-down alone -0.219; inactive. EPHB4 (EPH receptor B4) showed robust z-score, knock-down alone -0.341; inactive. After knock-down of NF1 (neurofibromin 1), the record shows robust z-score, knock-down alone 0.419; inactive.

Silencing of FYN (FYN proto-oncogene, Src family tyrosine kinase) gave: robust z-score, knock-down alone 0.966; inactive. Against NME6 (NME/NM23 nucleoside diphosphate kinase 6), the values are robust z-score, knock-down alone -2.36; inactive. For MYLK (myosin light chain kinase) the deposit lists robust z-score, knock-down alone -1.75; inactive. After knock-down of DAPK3 (death associated protein kinase 3), the screen gave robust z-score, knock-down alone -1.2; inactive. ALPK2 (alpha kinase 2) scored robust z-score, knock-down alone -0.0845; inactive. For HUS1 (HUS1 checkpoint clamp component) the deposit lists robust z-score, knock-down alone 0.00804; inactive.

Silencing of ACVR2A (activin A receptor type 2A) came out at: robust z-score, knock-down alone 0.989; inactive. Knock-down of MARK4 (microtubule affinity regulating kinase 4) gave: robust z-score, knock-down alone 0.915; inactive. Depletion of PHKB (phosphorylase kinase regulatory subunit beta) gave: robust z-score, knock-down alone 0.343; inactive. Knock-down of STK32B (serine/threonine kinase 32B) came out at: robust z-score, knock-down alone 0.989; inactive. Against MARK2 (microtubule affinity regulating kinase 2) the deposit lists robust z-score, knock-down alone 0.989; inactive. Against EIF2AK4 (eukaryotic translation initiation factor 2 alpha kinase 4), the values are robust z-score, knock-down alone 0.989; inactive.

BMP2K (BMP2 inducible kinase) scored robust z-score, knock-down alone -0.189; inactive.

4 of these entries, reformatted:
Gene | robust z-score, knock-down alone | Outcome
MARK4 (microtubule affinity regulating kinase 4) | 0.915 | inactive
PHKB (phosphorylase kinase regulatory subunit beta) | 0.343 | inactive
STK32B (serine/threonine kinase 32B) | 0.989 | inactive
MARK2 (microtubule affinity regulating kinase 2) | 0.989 | inactive

Next records follow:
Depletion of CAMKK2 (calcium/calmodulin dependent protein kinase kinase 2) came out at: robust z-score, knock-down alone -0.871; inactive. After knock-down of MAPKAPK3 (MAPK activated protein kinase 3) the results were robust z-score, knock-down alone -1.5; inactive. For VRK1 (VRK serine/threonine kinase 1), the entry reads robust z-score, knock-down alone -1.62; inactive. Silencing of MKNK1 (MAPK interacting serine/threonine kinase 1) gave: robust z-score, knock-down alone 0.989; inactive. With knock-down of NEK11 (NIMA related kinase 11) the results were robust z-score, knock-down alone -1.12; inactive. After knock-down of HSPB8 (heat shock protein family B (small) member 8), the screen gave robust z-score, knock-down alone 0.507; inactive.

After knock-down of BMPR1B (bone morphogenetic protein receptor type 1B), the screen gave robust z-score, knock-down alone -0.545; inactive. After knock-down of TYRO3 (TYRO3 protein tyrosine kinase) the results were robust z-score, knock-down alone 0.989; inactive. After knock-down of AK1 (adenylate kinase 1), the screen gave robust z-score, knock-down alone 0.0336; inactive. Against GRK5 (G protein-coupled receptor kinase 5) the deposit lists robust z-score, knock-down alone 0.989; inactive. Against EIF2AK2 (eukaryotic translation initiation factor 2 alpha kinase 2), the entry reads robust z-score, knock-down alone 0.626; inactive. After knock-down of DIS3 (DIS3 exosome endoribonuclease and 3'-5' exoribonuclease), the record shows robust z-score, knock-down alone 0.199; inactive.

Against STK31 (serine/threonine kinase 31), the values are robust z-score, knock-down alone 0.588; inactive. Depletion of ADCK5 (aarF domain containing kinase 5) came out at: robust z-score, knock-down alone 0.843; inactive. SIK2 (salt inducible kinase 2) gave robust z-score, knock-down alone -1.29; inactive. For CDK13 (cyclin dependent kinase 13), the values are robust z-score, knock-down alone 0.989; inactive. STK32A (serine/threonine kinase 32A) scored robust z-score, knock-down alone 0.989; inactive.
